In PubChem BioAssay AID1487 (National Center for Advancing Translational Sciences (NCATS), 2009):
Some of the results follow. These are further read-outs of the screen, such as a control signal, another cell line or another target. No call is given for them. The list favours compounds with an active or inconclusive main result. Words in brackets tell the shape of the fitted curve; partial curves, single points and poor fits give uncertain potencies.

Assay: qHTS Assay for Modulators of Lamin A Splicing
Conditions: HeLa LMNA splicing GFP/RFP minigene ratio, 48 h
Summary of the method: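 S3 HeLa stable clones carrying a lamin A-EGFP splicing minigene plus DsRed2 were seeded at 600 cells/well in Opti-MEM with 2% FBS, pin-dosed and incubated 48 h at 37°C. Acumen cytometry (488 nm) gave the GFP/RFP total-intensity ratio.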

[1] = measured here: GFP splicing reporter channel
[2] = measured here: RFP viability control channel

Compound | AC50 [1] | AC50 [2]
COc1ccc(-c2cc3ccc(O)c(CN4CCN(C)CC4)c3oc2=O)cc1OC | 10 µM [falling, partial curve] | 7.08 µM [falling, partial curve]
Cc1ccc(S(=O)(=O)N(C)c2ccc(OCC(=O)Nc3nc4c(ccc5ccccc54)s3)cc2)cc1 |  | 12.6 µM [rising, single point]
CC(=O)Oc1cc(C(C)C)c(OCCN(C)C)cc1C | 12.6 µM [falling, single point] | 3.16 µM [rising, single point]
COc1cccc(NC(=O)Cn2nnc(-c3ccccc3N)n2)c1 |  | 6.31 µM [rising, full curve, poor fit]
Cc1ccc(-c2ccc(C3C(C#N)=C(N)Oc4n[nH]c(C)c43)o2)cc1 (centres undefined) | 35.5 µM [falling, single point] | 28.2 µM [falling, partial curve]
O=C(NC1CC(=O)N(c2ccc(Cl)cc2)C1)c1cc2ccccc2o1 (centres undefined) | 0.00501 µM [falling, full curve, poor fit] | 0.0282 µM [falling, full curve]
O=c1cc(CSc2nnc(COc3ccc(Cl)cc3)o2)c2ccccc2[nH]1 |  | 31.6 µM [rising, single point]
Cc1nc2scc(-c3ccccc3)c2c(=O)n1/N=C/c1ccco1 |  | 12.6 µM [rising, single point]
CC(=O)Oc1c(C(=O)c2nnc(C)o2)c(=O)n(C)c2ccccc12 | 4.47 µM [falling, single point] | 3.98 µM [falling, single point]
COc1ccc(Cc2nc(-c3ccc(-n4cccc4)cc3)no2)cc1OC |  | 6.31 µM [rising, single point]
COc1ccc2[nH]c(-c3cccc(F)c3)cc(=O)c2c1 |  | 1.12 µM [rising, full curve]
CCOC(=O)c1cccc(NC(=O)CN(C)S(=O)(=O)c2cnc[nH]2)c1 | 0.0631 µM [rising, full curve, poor fit] | 
COC(=O)c1cc2c(-c3ccccc3)c(C)c3ccccn3c-2c1C(=O)OC |  | 17.8 µM [rising, single point]
Cn1c(SCc2nc3ccccc3[nH]2)nnc1-c1cccnc1 | 5.62 µM [rising, single point] | 3.98 µM [rising, single point]
CC1=[N+](C)c2ccc3ccccc3c2C1(C)C | 6.31 µM [rising, full curve] | 3.16 µM [rising, full curve, poor fit]
C/C(=N\NC(=O)Cc1cccc2ccccc12)c1ccncc1 | 25.1 µM [rising, single point] | 
CCOc1cc(C=O)cc(Br)c1OCC(=O)NCCc1ccccc1 |  | 35.5 µM [rising, single point]
CC(C)CCN1CCN(Cc2ccc(N3CCNC3=O)cc2)CC1CCO (centres undefined) |  | 0.02 µM [falling, full curve, poor fit]
COc1ccc(CCN(C(=O)Cn2nnc3ccccc32)C(C(=O)NCC2CCCO2)c2ccncc2)cc1OC (centres undefined) |  | 6.31 µM [falling, partial curve, poor fit]

Compound | AC50 [1] | AC50 [2]
Oc1cccc(C(O)CNCc2ccc(-c3ccccc3)cc2)c1 (centres undefined) |  | 10 µM [rising, partial curve]
CN1CCN(c2ccc([N+](=O)[O-])cc2C(=O)c2ccc(Br)cc2)CC1 | 10 µM [falling, partial curve, poor fit] | 7.94 µM [falling, partial curve]
CCOc1cc(NC(=S)NCCCN2CCOCC2)c(OCC)cc1NC(=O)C(C)C | 12.6 µM [falling, single point] | 22.4 µM [falling, partial curve]
Cc1ccc(C)c(N(C(=O)CCC(=O)Nc2cc(C)on2)C(C(=O)NC2CCCC2)c2ccco2)c1 (centres undefined) | 15.8 µM [rising, partial curve, poor fit] | 15.8 µM [rising, partial curve, poor fit]
COc1cccc(-c2ccc3ncnc(NC4CCNCC4)c3c2)c1 |  | 14.1 µM [rising, single point]
C=C(C)C1CC=C(C)/C(=N/NC(=O)c2ccoc2C)C1 (centres undefined) |  | 35.5 µM [rising, single point]
Cc1ccc2c(c1)c1c(n2CC(O)Cn2c(C)nc3ccccc32)C(=O)CCC1 (centres undefined) |  | 0.794 µM [rising, partial curve]
Nc1c(Cl)ncnc1N/N=C/c1ccccn1 |  | 5.01 µM [rising, full curve]
CCOc1ccc(NC(=O)c2c(NCc3cc(OC)c(OC)cc3OC)sc3c2CCCC3)cc1 | 2.24 µM [falling, single point] | 
O=C(O)CSc1nc(-c2ccccc2)nc2c1oc1ccccc12 | 14.1 µM [rising, single point] | 
COc1cccc(CNC(=O)C(c2ccc(Cl)cc2)C(C)C)c1 (centres undefined) | 11.2 µM [rising, single point] | 14.1 µM [rising, single point]
Cc1ccc2nc(Nc3nc(-c4ccccc4)cc(=O)[nH]3)nc(C)c2c1 | 12.6 µM [falling, partial curve] | 15.8 µM [falling, partial curve]
CCOc1cccc2cc(-c3nnc(NCc4ccco4)s3)c(=O)oc12 |  | 7.08 µM [falling, partial curve]
COc1ccc(N2CCN(C(=O)c3cccc(Br)c3)CC2)c([N+](=O)[O-])c1 | 22.4 µM [falling, partial curve, poor fit] | 
O=[N+]([O-])c1cc(/C=N/Nc2nc3ccccc3[nH]2)c(O)cc1O |  | 3.98 µM [rising, full curve]
CCCC1=Nc2cc(C(=O)NC3CCCCC3)ccc2Sc2ccc(C)cc21 | 0.158 µM [falling, full curve, poor fit] | 
CCOC(=O)C1C(=O)Nc2nc3ccccc3n2C1C(C)C (centres undefined) |  | 0.0708 µM [falling, full curve, poor fit]
CCOC(=O)c1c(NC(=O)COc2ccccc2)sc(C(C)=O)c1C | 0.794 µM [falling, full curve, poor fit] | 
CCOC(=O)N1CCC(NCCNC(=O)c2ccccc2)CC1 | 6.31 µM [rising, single point] | 

Compound | AC50 [1] | AC50 [2]
O=C(Nc1ccc(Cl)cc1)Nc1nnc(SCc2ccccc2)s1 |  | 25.1 µM [rising, single point]
Nc1ncc(-c2ccc([N+](=O)[O-])cc2)cn1 |  | 20 µM [rising, single point]
O=C(CSc1nc(=O)n(Cc2ccncc2)c2c1CCC2)Nc1cccc(F)c1 | 0.0447 µM [falling, full curve, poor fit] | 0.0562 µM [falling, full curve, poor fit]
Cc1ccc(NC(=O)/C(C#N)=C/c2ccccc2C(F)(F)F)cc1 |  | 0.0891 µM [rising, full curve]
O=c1cc(CSc2nnnn2-c2ccccc2)nc(Nc2ccc(F)cc2)[nH]1 |  | 35.5 µM [rising, single point]
CC(=O)c1ccc(N2CCC(c3cc(-c4ccc(Cl)cc4Cl)n[nH]3)CC2)c([N+](=O)[O-])c1 |  | 35.5 µM [falling, single point]
C/C(CCN1CCc2nc(-c3ccccc3)c(-c3ccccc3)cc2C1)=N\O[C@H](C)c1cn([C@H](CO)Cc2ccccc2)nn1 |  | 35.5 µM [rising, single point]
O=C(Nc1nc(-c2ccccc2Cl)cs1)c1cccnc1 | 12.6 µM [rising, single point] | 14.1 µM [rising, single point]
CCOC(=O)C1CCN(CCC(=O)Nc2ccc(C)cc2)CC1 |  | 1.58 µM [falling, partial curve, poor fit]
CN(C)CCCN1C(=O)C(=O)/C(=C(/O)c2ccncc2)C1c1ccccc1 (centres undefined) |  | 35.5 µM [rising, single point]
CC(=O)Nc1ccc(Cc2ccc3[nH]c(=O)cc(C)c3c2)cc1 | 15.8 µM [falling, partial curve, poor fit] | 
C/C(=N\NC(=O)CSc1ncccn1)c1ccc2c(c1)OCCO2 | 0.282 µM [falling, full curve, poor fit] | 0.447 µM [falling, full curve, poor fit]
Cc1ccc(NC(=S)NNC(=O)c2ccccc2O)c(C)c1 |  | 4.47 µM [rising, full curve]
CCCN1CCCc2cc(CN(CCCN3CCOCC3)C(=O)Nc3ccc(Cl)c(Cl)c3)ccc21 |  | 0.1 µM [falling, full curve, poor fit]
Cc1cc(C)cc(-n2c(SCC(=O)Nc3ccc4c(c3)OCO4)nc3c([nH]c4ccccc43)c2=O)c1 |  | 7.94 µM [falling, full curve]
O=C(Nc1nnc(SCc2ccccc2)s1)c1cccc([N+](=O)[O-])c1 | 17.8 µM [rising, single point] | 25.1 µM [rising, single point]
COc1ccc2sc(N(Cc3cccnc3)C(=O)CCc3ccccc3)nc2c1 | 12.6 µM [falling, partial curve] | 
Cc1onc(-c2ccccc2)c1C(=O)NNC(=S)NC(=O)c1ccc(F)cc1 |  | 12.6 µM [rising, single point]
CCOC(=O)c1c(S(=O)(=O)N2CCC(C(=O)NCc3ccccc3Cl)CC2)c(C)n(C)c1C | 0.00501 µM [falling, full curve, poor fit] | 3.55 µM [falling, partial curve, poor fit]

Exported as tab-separated lines: three of the compounds above
Compound	AC50 [1]	AC50 [2]
Cc1ccc(-c2ccc(C3C(C#N)=C(N)Oc4n[nH]c(C)c43)o2)cc1 (centres undefined)	35.5 µM [falling, single point]	28.2 µM [falling, partial curve]
CCOc1cc(NC(=S)NCCCN2CCOCC2)c(OCC)cc1NC(=O)C(C)C	12.6 µM [falling, single point]	22.4 µM [falling, partial curve]
CCOC(=O)N1CCC(NCCNC(=O)c2ccccc2)CC1	6.31 µM [rising, single point]	
